# Measurements reported in publication PMC8531642.
# Sequences of proteins named here, by UniProt entry; tags and fusion partners are left off. Residues count along the entry.
# UniProt P00004: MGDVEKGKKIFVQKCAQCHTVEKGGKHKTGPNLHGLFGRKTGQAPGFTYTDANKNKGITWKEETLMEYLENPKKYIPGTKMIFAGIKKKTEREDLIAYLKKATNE
# UniProt P01137, residues 279-390: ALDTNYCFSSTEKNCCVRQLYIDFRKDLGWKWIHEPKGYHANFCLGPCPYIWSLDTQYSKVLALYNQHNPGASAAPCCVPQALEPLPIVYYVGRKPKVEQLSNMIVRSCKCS
# Results are given in words; binding and its absence hold for the method and conditions named. For some of these results: In cells and extracts the contact can be indirect. Some results given as binding are weak or reduced against the parent protein; the word gives no strength. For some of these results: Sequences can lack the tags named with a protein.
# T1: FLAG-tagged recombinant human LRG1 (leucine-rich α2-glycoprotein-1) (human) (UniProt P02750)
# T1 sequence: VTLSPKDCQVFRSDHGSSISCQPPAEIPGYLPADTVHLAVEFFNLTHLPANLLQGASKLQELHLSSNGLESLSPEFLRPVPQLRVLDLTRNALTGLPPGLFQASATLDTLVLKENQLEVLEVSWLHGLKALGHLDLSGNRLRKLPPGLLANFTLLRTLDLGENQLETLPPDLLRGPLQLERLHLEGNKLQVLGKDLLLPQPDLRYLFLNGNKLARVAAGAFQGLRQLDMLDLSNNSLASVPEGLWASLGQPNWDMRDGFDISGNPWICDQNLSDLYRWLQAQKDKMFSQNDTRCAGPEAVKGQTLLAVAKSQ
# How the values were obtained:
# [1] = biological target: T1, FLAG-tagged recombinant human LRG1 (leucine-rich α2-glycoprotein-1) (human); test: co-IP; FLAG-LRG1 (1 μg) incubated with TGF-β1 (0.2 μg), horse Cyt c (2 μg) or both; Cyt c in 8-fold molar excess to LRG1 and 20-fold to TGF-β1; immunoprecipitated with anti-FLAG antibody-coupled agarose; western blots for Cyt c and TGF-β1; only the binder purified
# [2] = biological target: T1, FLAG-tagged recombinant human LRG1 (leucine-rich α2-glycoprotein-1) (human); test: co-IP; competition: TGF-β1 (25 ng) incubated with FLAG-LRG1 (100 ng) and increasing horse Cyt c (0-1 μg); LRG1 complexes immunoprecipitated with anti-FLAG antibody-coupled agarose; TGF-β1 seen by western blot; only the binder purified
# [3] = biological target: Cyt c conjugated to Sepharose 4B beads (UniProt P00004); test: pull-down; mini-column of 0.5 ml Cyt c-conjugated Sepharose 4B (10 mg protein per ml beads) regenerated in PBS pH 7.5; purified urine LRG1 (10 μg) applied to the column; both purified
binding [1],binding [2],binding [3],Molecule
binds,,,horse cytochrome c (from UniProt P00004 1-105)
binds,binds,,recombinant human transforming growth factor-beta 1 (TGF-β1) (from UniProt P01137 279-390) (ligand)
,,binds,"LRG1 purified from urine of an appendicitis patient (protein, UniProt P02750 36-347) VTLSPKDCQVFRSDHGSSISCQPPAEIPGYLPADTVHLAVEFFNLTHLPANLLQGASKLQELHLSSNGLESLSPEFLRPVPQLRVLDLTRNALTGLPPGLFQASATLDTLVLKENQLEVLEVSWLHGLKALGHLDLSGNRLRKLPPGLLANFTLLRTLDLGENQLETLPPDLLRGPLQLERLHLEGNKLQVLGKDLLLPQPDLRYLFLNGNKLARVAAGAFQGLRQLDMLDLSNNSLASVPEGLWASLGQPNWDMRDGFDISGNPWICDQNLSDLYRWLQAQKDKMFSQNDTRCAGPEAVKGQTLLAVAKSQ"
